Data published in publication PMC10164935.
Results are given in words; binding and its absence hold for the method and conditions named. Binding seen in cells or lysates may run through a third protein.

By UniProt entry, the sequences of proteins in these tests, tags left out. Where a name states a change or a piece, a line headed by the entry shows the natural chain unless it says otherwise. Chains listed by the source or under a name are the forms on record and can include a tag or linker.
UniProt P21333: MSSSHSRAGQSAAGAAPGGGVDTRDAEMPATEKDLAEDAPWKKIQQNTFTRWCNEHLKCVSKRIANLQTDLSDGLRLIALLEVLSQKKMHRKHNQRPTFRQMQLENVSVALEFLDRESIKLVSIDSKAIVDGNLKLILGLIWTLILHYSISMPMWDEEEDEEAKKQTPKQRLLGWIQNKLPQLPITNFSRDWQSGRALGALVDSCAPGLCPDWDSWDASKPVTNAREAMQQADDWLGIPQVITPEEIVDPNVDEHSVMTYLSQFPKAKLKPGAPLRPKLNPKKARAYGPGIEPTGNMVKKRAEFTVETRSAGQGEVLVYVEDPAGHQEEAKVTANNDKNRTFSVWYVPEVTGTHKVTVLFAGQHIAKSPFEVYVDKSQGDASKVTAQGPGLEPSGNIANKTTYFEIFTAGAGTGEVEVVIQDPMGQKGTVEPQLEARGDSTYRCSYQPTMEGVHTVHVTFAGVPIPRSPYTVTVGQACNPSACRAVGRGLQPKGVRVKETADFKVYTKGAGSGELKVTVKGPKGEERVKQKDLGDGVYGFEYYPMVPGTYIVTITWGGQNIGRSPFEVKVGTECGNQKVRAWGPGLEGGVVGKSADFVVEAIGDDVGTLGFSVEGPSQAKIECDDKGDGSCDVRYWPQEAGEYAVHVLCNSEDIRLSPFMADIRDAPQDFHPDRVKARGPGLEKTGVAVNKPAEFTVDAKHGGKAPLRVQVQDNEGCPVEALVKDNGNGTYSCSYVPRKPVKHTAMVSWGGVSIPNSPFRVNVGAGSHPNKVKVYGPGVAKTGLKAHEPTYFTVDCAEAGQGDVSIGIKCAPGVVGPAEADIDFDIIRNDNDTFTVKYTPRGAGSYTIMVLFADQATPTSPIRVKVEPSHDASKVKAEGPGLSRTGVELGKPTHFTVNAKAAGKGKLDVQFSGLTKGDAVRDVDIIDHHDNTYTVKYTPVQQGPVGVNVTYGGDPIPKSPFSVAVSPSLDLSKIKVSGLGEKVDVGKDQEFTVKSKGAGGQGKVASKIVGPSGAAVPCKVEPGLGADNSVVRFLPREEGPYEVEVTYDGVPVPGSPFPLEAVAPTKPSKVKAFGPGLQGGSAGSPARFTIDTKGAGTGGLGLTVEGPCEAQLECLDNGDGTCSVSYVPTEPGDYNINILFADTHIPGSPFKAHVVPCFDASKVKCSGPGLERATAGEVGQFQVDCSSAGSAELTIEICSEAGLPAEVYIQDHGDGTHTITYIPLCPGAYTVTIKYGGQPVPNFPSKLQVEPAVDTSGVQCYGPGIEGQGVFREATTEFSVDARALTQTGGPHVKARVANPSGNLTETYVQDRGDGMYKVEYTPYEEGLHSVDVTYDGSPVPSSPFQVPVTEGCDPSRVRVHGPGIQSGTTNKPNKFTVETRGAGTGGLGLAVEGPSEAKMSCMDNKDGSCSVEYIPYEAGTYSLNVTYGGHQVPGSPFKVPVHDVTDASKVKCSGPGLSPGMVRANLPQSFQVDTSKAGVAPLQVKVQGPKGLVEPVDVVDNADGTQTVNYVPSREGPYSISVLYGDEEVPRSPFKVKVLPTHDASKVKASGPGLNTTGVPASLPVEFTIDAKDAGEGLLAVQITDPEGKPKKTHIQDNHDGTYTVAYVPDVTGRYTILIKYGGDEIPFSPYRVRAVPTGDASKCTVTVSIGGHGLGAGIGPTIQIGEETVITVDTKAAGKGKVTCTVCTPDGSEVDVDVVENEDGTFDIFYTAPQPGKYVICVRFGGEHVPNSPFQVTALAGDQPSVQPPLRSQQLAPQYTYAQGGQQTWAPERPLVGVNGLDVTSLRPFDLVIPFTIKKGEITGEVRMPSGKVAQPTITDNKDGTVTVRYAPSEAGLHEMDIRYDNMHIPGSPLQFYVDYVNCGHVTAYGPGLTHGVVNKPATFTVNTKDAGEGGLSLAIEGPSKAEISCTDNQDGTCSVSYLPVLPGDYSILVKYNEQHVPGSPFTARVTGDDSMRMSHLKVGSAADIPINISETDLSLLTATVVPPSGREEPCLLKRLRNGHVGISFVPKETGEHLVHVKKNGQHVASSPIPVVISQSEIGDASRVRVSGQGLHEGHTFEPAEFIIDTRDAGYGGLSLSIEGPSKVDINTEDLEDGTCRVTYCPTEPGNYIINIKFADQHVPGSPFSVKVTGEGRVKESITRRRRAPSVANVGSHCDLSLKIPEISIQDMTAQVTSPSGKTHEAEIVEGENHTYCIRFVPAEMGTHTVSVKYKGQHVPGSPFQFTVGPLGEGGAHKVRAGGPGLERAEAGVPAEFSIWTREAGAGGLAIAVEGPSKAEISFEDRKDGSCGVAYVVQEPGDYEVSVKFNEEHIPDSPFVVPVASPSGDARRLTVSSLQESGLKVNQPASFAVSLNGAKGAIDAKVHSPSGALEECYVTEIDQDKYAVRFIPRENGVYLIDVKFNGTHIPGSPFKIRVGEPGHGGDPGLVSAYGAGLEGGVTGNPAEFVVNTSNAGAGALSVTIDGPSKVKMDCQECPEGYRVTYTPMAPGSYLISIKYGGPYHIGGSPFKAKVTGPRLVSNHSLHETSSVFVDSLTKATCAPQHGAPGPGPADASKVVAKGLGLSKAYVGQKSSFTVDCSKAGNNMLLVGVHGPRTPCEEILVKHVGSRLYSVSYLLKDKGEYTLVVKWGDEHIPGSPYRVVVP
UniProt Q8BWW4: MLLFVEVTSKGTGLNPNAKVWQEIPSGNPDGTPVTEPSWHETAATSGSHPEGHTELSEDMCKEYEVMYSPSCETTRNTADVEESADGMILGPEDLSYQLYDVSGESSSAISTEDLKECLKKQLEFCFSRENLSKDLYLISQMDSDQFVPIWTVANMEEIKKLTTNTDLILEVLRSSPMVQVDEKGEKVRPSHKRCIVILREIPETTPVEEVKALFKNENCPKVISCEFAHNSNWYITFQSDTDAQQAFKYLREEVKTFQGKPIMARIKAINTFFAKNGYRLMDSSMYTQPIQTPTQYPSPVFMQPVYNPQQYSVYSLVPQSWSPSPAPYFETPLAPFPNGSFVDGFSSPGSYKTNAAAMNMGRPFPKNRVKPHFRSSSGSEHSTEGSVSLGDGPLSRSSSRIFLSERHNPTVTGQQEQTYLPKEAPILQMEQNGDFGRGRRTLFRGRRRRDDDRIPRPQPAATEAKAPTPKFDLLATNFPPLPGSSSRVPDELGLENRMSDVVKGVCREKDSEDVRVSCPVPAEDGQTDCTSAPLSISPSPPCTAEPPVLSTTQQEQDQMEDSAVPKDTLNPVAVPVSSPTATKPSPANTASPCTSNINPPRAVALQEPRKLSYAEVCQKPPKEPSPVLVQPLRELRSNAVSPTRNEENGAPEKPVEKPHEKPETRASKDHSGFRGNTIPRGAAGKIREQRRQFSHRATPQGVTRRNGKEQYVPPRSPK
endogenous mouse Larp4 (La-related protein 4) of MEF cells (Q8BWW4, form named): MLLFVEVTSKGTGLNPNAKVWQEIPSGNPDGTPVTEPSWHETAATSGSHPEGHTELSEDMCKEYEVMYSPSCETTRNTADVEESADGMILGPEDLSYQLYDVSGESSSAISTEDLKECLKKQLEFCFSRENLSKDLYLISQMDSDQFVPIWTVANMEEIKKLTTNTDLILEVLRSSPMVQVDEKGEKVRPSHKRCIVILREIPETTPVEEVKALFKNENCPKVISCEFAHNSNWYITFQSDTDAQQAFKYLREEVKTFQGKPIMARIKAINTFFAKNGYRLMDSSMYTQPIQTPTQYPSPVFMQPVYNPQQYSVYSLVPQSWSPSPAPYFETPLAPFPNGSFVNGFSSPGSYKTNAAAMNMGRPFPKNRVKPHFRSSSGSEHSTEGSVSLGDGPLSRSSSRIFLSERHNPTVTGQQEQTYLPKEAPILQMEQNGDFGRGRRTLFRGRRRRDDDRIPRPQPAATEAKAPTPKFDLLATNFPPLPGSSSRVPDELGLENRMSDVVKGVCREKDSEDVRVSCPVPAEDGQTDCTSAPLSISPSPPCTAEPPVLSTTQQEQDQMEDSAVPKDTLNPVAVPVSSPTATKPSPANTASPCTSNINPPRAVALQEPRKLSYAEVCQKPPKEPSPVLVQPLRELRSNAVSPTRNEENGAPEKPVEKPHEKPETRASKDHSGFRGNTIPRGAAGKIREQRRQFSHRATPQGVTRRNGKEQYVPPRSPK

Target: SBP-FLNA WT (full length) (human) (UniProt P21333)
Assay: pull-down; SBP-FLNA (WT or del41) from transfected HEK293A lysate held on streptavidin beads, then hsSKM or MEF cell lysate, 1 h, 4°C, washed with TBS-0.1% Tx; blot anti-LARP4

## endogenous mouse Larp4 (La-related protein 4) of MEF cells (from UniProt Q8BWW4 1-719)
  binding: no binding
